The text below walks through data of patent publication US20250019350A1, “SYNTHESIS OF THE PROSTATE SPECIFIC MEMBRANE ANTIGEN (PSMA) RADIOLABELED INHIBITOR [18F]DCFPYL” (Progenics Pharmaceuticals, Inc, priority 2023, published 2025).

This data set in a line: Radiolysis / stability of [18F]DCFPyL over time by HPLC with radiodetection (RCP, free 18F, radioactive impurities). It counts as physicochemical. The method, then:
Those of ordinary skill in the art will be aware of techniques and systems for determining the radiochemical purity of a composition. In some cases, the radiochemical purity is determined using an HPLC associated with a radio-detector. Generally, the radiochemical purity is determined under ambient conditions (e.g., ambient temperature, ambient humidity, ambient light, etc.), such as in samples stored under such conditions.
Stability was assessed using reverse phase HPLC on a C18 column with a phosphate buffer/acetonitrile gradient mobile phase, and the elution profile was monitored using both UV and radiochemical detectors. Samples were analyzed either by direct injection onto the HPLC, dilution and injection or including the addition of tetraethylammonium fluoride (TEAF) into the sample before injection.
Known amounts of free ^18F either alone or spiked with TEAF were injected onto the analytic column and the eluent from the column collected over the course of a chromatogram and assaying the radioactivity using a Capintec. […] Adding TEAF into the analytic samples was incorporated into subsequent studies examining potential radiolysis of [^18F]DCFPyL to overcome some of the limitations of free ^18F quantification.
Analytical HPLC method was used. The method employs UV detection at 264 nm for chemical impurities, and an Eckert & Ziegler model B-FC-1000 gamma detector for radiochemical assays.

Further values from the same series stand in other lists.

As for `O=C(O)CC[C@H](NC(=O)N[C@@H](CCCCNC(=O)c1ccc([18F])nc1)C(=O)O)C(=O)O` [Lot 18F-DCFPyL, 2-(3-{1-carboxy-5-[(6-[18F]fluoro-pyridine-3-carbonyl)-amino]-pentyl}ureido)-pentanedioic acid], the “18F-DCFPyL (% RCP)” value is, setting by setting: (T = 0, 1 mg/mL sodium ascorbate, 20% ethanol, 111.5 mCi/mL at EOS) 99.43%; (T = 0, 20 mg/mL sodium citrate, 20% ethanol, 104.8 mCi/mL at EOS) 89.78%; (T = 0.5, 5 mg/mL sodium ascorbate, 20% ethanol, 114.6 mCi/mL at EOS) 99.61%; (T = 2 hr, 1 mg/mL sodium ascorbate, 20% ethanol, 111.5 mCi/mL at EOS) 98.11%; (T = 2 hr, 5 mg/mL sodium ascorbate, 20% ethanol, 114.6 mCi/mL at EOS) 99.11%; (T = 2 hr, 20 mg/mL sodium citrate, 20% ethanol, 104.8 mCi/mL at EOS) 81.14%. For the same compound, the “18F-DCFPyL (% RCP)” value reads like this: (T = 4 hr, 1 mg/mL sodium ascorbate, 20% ethanol, 111.5 mCi/mL at EOS) 97.39%; (T = 4 hr, 5 mg/mL sodium ascorbate, 20% ethanol, 114.6 mCi/mL at EOS) 98.77%; (T = 4 hr, 20 mg/mL sodium citrate, 20% ethanol, 104.8 mCi/mL at EOS) 78.68%; (T = 6 hr, 0.5 mg/mL ascorbic acid pH 5.8, 20% ethanol, 105.8 mCi/mL at EOS) 98.56%; (T = 6 hr, 1 mg/mL sodium ascorbate, 20% ethanol, 111.5 mCi/mL at EOS) 97.19%; (T = 6 hr, 5 mg/mL sodium ascorbate, 20% ethanol, 114.6 mCi/mL at EOS) 98.55%. Moreover, the “18F-DCFPyL (% RCP)” value was determined as 98.58% (T = 10 hr, 0.5 mg/mL ascorbic acid pH 5.8, 20% ethanol, 105.8 mCi/mL at EOS); 97.26% (T = 10 hr, 1 mg/mL sodium ascorbate, 20% ethanol, 111.5 mCi/mL at EOS); 98.49% (T = 10 hr, 5 mg/mL sodium ascorbate, 20% ethanol, 114.6 mCi/mL at EOS).
